In PubChem BioAssay AID330 (DTP/NCI, 2004):
The list shows only some results of the screen, not a fair sample: it is rich in T/C values a quarter to a half above the control, in often repeated tests (any T/C) and in doses without a T/C. Further doses and runs are listed elsewhere. T/C is the treated group as % of the vehicle group. Some entries give survivors of the animals treated and no T/C: the source files T/C as zero there, which appears to mark a toxic dose or a test without result, not a measured value. Some survivor counts are full or nearly so, which does not show that the dose was tolerated: survival well below the control is almost never listed, so the zero probably covers shortened survival too. Counts of survivors are from the toxicity check (mostly the fifth day) where no day follows; animals may have died later. Schedules are NCI's codes, read here as Q, the interval in days (D) or hours (H), X, the number of doses. Some structures stand for samples that the source files as different forms (salt, stereo form or complex); doses refer to the form tested. Counts like (3×) say how often a value occurs here. Some doses were run more than once; the results are listed from low to high. For survival time, this PubChem deposit counts one and a half times the control or more as active, and values a quarter to a half above the control carry no call in these data; other NCI protocols may use other cut-offs. Some T/C values carry the count of animals alive at the toxicity check (mostly the fifth day); where none is given, no animal had died by that day.

System: P388 leukemia ip, CD2F1 mice, survival T/C
Assay: NCI In Vivo Anticancer Drug Screen. Data for tumor model P388 Leukemia (intraperitoneal) in CD2F1 (CDF1) mice
Conditions: T/C endpoint: median survival time, higher T/C = longer survival
[1] = dose: 40.0 mg/kg/injection, schedule: Q01DX009 (ip), vehicle: water
[2] = dose: 60.0 mg/kg/injection, schedule: Q01DX001 (iv), vehicle: saline
[3] = dose: 100.0 mg/kg/injection, schedule: Q04DX003 (ip), vehicle: saline

Compound: O=C1c2ccccc2C(=O)c2c(NCCNCCO)ccc(NCCNCCO)c21
- survivor count (dose: 32.0 mg/kg/injection, schedule: Q01DX009 (ip), vehicle: acid diluted with saline): 10 of 10 and 8 of 8
- survivor count (dose: 32.0 mg/kg/injection, schedule: Q01DX009 (ip), vehicle: other): 6 of 6
- survivor count (dose: 32.0 mg/kg/injection, schedule: Q01DX009 (ip), vehicle: saline with Tween-80): 5 of 6 and 6 of 6 (2×)
- T/C (dose: 32.0 mg/kg/injection, schedule: Q01DX009 (ip), vehicle: water, evaluated on day 30): 89, 107, 108, 155, 198, 211 % of control
- T/C (dose: 32.0 mg/kg/injection, schedule: Q01DX009 (ip), vehicle: water, evaluated on day 60): 86 % of control
- survivor count (dose: 32.0 mg/kg/injection, schedule: Q01DX009 (ip), vehicle: water): 10 of 10 and 6 of 6
- T/C (dose: 32.0 mg/kg/injection, schedule: Q04DX003 (ip), vehicle: saline): 130 % of control
- T/C (dose: 36.0 mg/kg/injection, schedule: Q01DX001 (iv), vehicle: saline, evaluated on day 45): 127 % of control
- T/C (dose: 36.0 mg/kg/injection, schedule: Q01DX001 (iv), vehicle: saline, evaluated on day 60): 140 % of control [7 of 8 alive]
- survivor count (dose: 36.0 mg/kg/injection, schedule: Q01DX005 (iv), vehicle: saline): 3 of 8
- T/C (dose: 36.0 mg/kg/injection, schedule: Q04DX003 (ip), vehicle: saline): 162, 181, 268, 289 % of control
- T/C (dose: 40.0 mg/kg/injection, schedule: Q01DX001 (iv), vehicle: saline): 131 % of control
- survivor count (dose: 40.0 mg/kg/injection, schedule: Q01DX005 (ip), vehicle: other): 6 of 6
- survivor count (dose: 40.0 mg/kg/injection, schedule: Q01DX005 (iv), vehicle: saline): 5 of 8
- survivor count (dose: 40.0 mg/kg/injection, schedule: Q01DX009 (ip), vehicle: distilled water + Tween-80): 4 of 6
- T/C (dose: 40.0 mg/kg/injection, schedule: Q01DX009 (ip), vehicle: saline, evaluated on day 35): 91 % of control
- T/C (dose: 40.0 mg/kg/injection, schedule: Q01DX009 (ip), vehicle: saline, evaluated on day 45): 90 % of control
- T/C (dose: 40.0 mg/kg/injection, schedule: Q01DX009 (ip), vehicle: saline, evaluated on day 50): 106 % of control
- survivor count (dose: 40.0 mg/kg/injection, schedule: Q01DX009 (ip), vehicle: saline): 6 of 6 (2×)
- T/C [1]: 131 and 221 % of control
- survivor count [1]: 5 of 6 (2×), 5 of 5, 6 of 6 (2×)
- T/C (dose: 40.0 mg/kg/injection, schedule: Q04DX003 (iv), vehicle: saline): 142 % of control [7 of 8 alive]
- T/C (dose: 48.0 mg/kg/injection, schedule: Q04DX003 (ip), vehicle: saline, evaluated on day 30): 138 % of control (2×)
- T/C (dose: 48.0 mg/kg/injection, schedule: Q04DX003 (ip), vehicle: saline, evaluated on day 45): 396 % of control
- T/C (dose: 48.0 mg/kg/injection, schedule: Q04DX003 (ip), vehicle: saline, evaluated on day 60): 560 % of control
- survivor count (dose: 48.0 mg/kg/injection, schedule: Q04DX003 (iv), vehicle: saline): 4 of 8 and 5 of 5
- survivor count (dose: 50.0 mg/kg/injection, schedule: Q01DX005 (ip), vehicle: saline): 6 of 6
- survivor count (dose: 50.0 mg/kg/injection, schedule: Q01DX005 (iv), vehicle: saline): 2 of 6
- survivor count (dose: 50.0 mg/kg/injection, schedule: Q01DX009 (ip), vehicle: Klucel (hydroxypropylcellulose) (HPC)): 6 of 6
- survivor count (dose: 50.0 mg/kg/injection, schedule: Q01DX009 (ip), vehicle: saline): 5 of 6 and 6 of 6
- survivor count (dose: 50.0 mg/kg/injection, schedule: Q01DX009 (ip), vehicle: water): 4 of 6
- T/C [2]: 144 % of control [2 of 2 alive]
- survivor count [2]: 0 of 8
- survivor count (dose: 60.0 mg/kg/injection, schedule: Q01DX005 (ip), vehicle: saline): 8 of 8
- survivor count (dose: 60.0 mg/kg/injection, schedule: Q01DX005 (iv), vehicle: saline): 0 of 8
- T/C (dose: 60.0 mg/kg/injection, schedule: Q04DX003 (ip), vehicle: saline): 89, 154, 291, 372 % of control
- survivor count (dose: 64.0 mg/kg/injection, schedule: Q01DX009 (ip), vehicle: Klucel (hydroxypropylcellulose) (HPC)): 8 of 10 and 9 of 10
- survivor count (dose: 64.0 mg/kg/injection, schedule: Q01DX009 (ip), vehicle: acid diluted with saline): 10 of 10
- survivor count (dose: 64.0 mg/kg/injection, schedule: Q01DX009 (ip), vehicle: saline with Tween-80): 4 of 6 (2×) and 6 of 6
- survivor count (dose: 64.0 mg/kg/injection, schedule: Q01DX009 (ip), vehicle: saline): 10 of 10
- survivor count (dose: 64.0 mg/kg/injection, schedule: Q01DX009 (ip), vehicle: water): 6 of 10, 4 of 6, 8 of 10, 5 of 6, 6 of 6
- survivor count (dose: 64.0 mg/kg/injection, schedule: Q04DX003 (ip), vehicle: saline with Tween-80): 5 of 6
- survivor count (dose: 80.0 mg/kg/injection, schedule: Q01DX001 (iv), vehicle: saline): 0 of 8
- survivor count (dose: 80.0 mg/kg/injection, schedule: Q04DX003 (ip), vehicle: saline): 7 of 8
- survivor count (dose: 80.0 mg/kg/injection, schedule: Q04DX003 (iv), vehicle: saline): 1 of 8
- survivor count (dose: 100.0 mg/kg/injection, schedule: Q01DX001 (ip), vehicle: saline): 7 of 8
- survivor count (dose: 100.0 mg/kg/injection, schedule: Q01DX009 (ip), vehicle: Klucel (hydroxypropylcellulose) (HPC)): 6 of 6 (2×)
- survivor count (dose: 100.0 mg/kg/injection, schedule: Q01DX009 (ip), vehicle: saline): 2 of 6 and 4 of 6
- survivor count (dose: 100.0 mg/kg/injection, schedule: Q01DX009 (ip), vehicle: water): 3 of 6
- T/C [3]: 185 % of control
- survivor count [3]: 5 of 8, 7 of 8, 8 of 8
- survivor count (dose: 128.0 mg/kg/injection, schedule: Q01DX009 (ip), vehicle: saline with Tween-80): 2 of 6, 4 of 6, 6 of 6
- survivor count (dose: 128.0 mg/kg/injection, schedule: Q04DX003 (ip), vehicle: Klucel (hydroxypropylcellulose) (HPC)): 4 of 6 and 5 of 6
- survivor count (dose: 128.0 mg/kg/injection, schedule: Q04DX003 (ip), vehicle: saline with Tween-80): 2 of 6
- survivor count (dose: 160.0 mg/kg/injection, schedule: Q01DX001 (ip), vehicle: saline): 8 of 8
- survivor count (dose: 167.0 mg/kg/injection, schedule: Q01DX001 (ip), vehicle: saline): 4 of 8
- T/C (dose: 192.0 mg/kg/injection, schedule: Q04DX003 (ip), vehicle: saline): 149 % of control
- survivor count (dose: 200.0 mg/kg/injection, schedule: Q01DX009 (ip), vehicle: Klucel (hydroxypropylcellulose) (HPC)): 2 of 6 and 3 of 6
- survivor count (dose: 200.0 mg/kg/injection, schedule: Q01DX009 (ip), vehicle: saline): 0 of 6
- T/C (dose: 200.0 mg/kg/injection, schedule: Q04DX003 (ip), vehicle: Klucel (hydroxypropylcellulose) (HPC)): 127 % of control [survivors not given]
- survivor count (dose: 256.0 mg/kg/injection, schedule: Q04DX003 (ip), vehicle: saline with Tween-80): 0 of 6
- survivor count (dose: 384.0 mg/kg/injection, schedule: Q04DX003 (ip), vehicle: saline): 6 of 6
- survivor count (dose: 400.0 mg/kg/injection, schedule: Q01DX009 (ip), vehicle: Klucel (hydroxypropylcellulose) (HPC)): 0 of 6 (2×)
- survivor count (dose: 512.0 mg/kg/injection, schedule: Q04DX003 (ip), vehicle: saline with Tween-80): 0 of 6
- survivor count (dose: 512.0 mg/kg/injection, schedule: Q04DX003 (ip), vehicle: saline): 3 of 6 on day 9 and 6 of 6
